According to the supplement of paper PMC12823440, “Inhibitors supercharge kinase turnover through native proteolytic circuits” (Nature, 2025):
Counter-ions that a name gives are not always drawn. This is one part of the list. The calls rarely recur for the same compound in another form.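 Kinases, fused to nanoluciferase, were expressed in K562 cells; luminescence was measured every 4 h from 2 to 18 h as percent of control (DMSO = 100%, positive control = 0%). A time point is decreased if signal falls significantly (2 sigma). Hits were called by the authors by a rule that is not shown; the count of time points alone does not decide it.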

Amino acid sequences for entries named in this document (tags omitted). A change or cut given only in a name is not applied to a line headed by its entry.
UniProt Q15208: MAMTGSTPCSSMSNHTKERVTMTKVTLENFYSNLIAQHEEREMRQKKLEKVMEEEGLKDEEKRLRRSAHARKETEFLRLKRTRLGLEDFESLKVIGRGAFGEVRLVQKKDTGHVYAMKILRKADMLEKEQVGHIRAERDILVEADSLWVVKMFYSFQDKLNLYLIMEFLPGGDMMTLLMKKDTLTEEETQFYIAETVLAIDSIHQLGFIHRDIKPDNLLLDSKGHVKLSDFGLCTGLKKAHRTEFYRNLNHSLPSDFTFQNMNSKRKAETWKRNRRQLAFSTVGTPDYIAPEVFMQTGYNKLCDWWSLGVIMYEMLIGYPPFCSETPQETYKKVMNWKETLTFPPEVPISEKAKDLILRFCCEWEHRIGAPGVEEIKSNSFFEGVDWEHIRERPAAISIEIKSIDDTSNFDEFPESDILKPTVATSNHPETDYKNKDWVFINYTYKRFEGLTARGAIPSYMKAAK
UniProt P42680: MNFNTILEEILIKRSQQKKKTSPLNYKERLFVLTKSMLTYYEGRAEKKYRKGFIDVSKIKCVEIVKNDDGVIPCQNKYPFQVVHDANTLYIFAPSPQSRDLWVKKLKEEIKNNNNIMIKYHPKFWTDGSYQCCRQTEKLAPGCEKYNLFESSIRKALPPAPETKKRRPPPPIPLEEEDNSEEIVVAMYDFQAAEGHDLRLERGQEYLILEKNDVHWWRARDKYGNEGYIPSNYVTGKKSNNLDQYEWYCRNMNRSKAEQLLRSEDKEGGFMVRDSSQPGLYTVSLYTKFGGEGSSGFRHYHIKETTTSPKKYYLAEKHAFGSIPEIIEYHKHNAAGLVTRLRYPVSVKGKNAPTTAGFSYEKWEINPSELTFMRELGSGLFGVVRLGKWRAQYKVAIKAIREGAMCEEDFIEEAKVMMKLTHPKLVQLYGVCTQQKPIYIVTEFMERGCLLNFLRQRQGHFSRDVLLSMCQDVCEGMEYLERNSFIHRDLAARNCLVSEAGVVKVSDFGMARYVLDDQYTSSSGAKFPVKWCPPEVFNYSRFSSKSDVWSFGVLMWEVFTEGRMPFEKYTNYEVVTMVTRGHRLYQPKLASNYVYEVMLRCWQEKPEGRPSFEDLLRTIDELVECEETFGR
UniProt P29597: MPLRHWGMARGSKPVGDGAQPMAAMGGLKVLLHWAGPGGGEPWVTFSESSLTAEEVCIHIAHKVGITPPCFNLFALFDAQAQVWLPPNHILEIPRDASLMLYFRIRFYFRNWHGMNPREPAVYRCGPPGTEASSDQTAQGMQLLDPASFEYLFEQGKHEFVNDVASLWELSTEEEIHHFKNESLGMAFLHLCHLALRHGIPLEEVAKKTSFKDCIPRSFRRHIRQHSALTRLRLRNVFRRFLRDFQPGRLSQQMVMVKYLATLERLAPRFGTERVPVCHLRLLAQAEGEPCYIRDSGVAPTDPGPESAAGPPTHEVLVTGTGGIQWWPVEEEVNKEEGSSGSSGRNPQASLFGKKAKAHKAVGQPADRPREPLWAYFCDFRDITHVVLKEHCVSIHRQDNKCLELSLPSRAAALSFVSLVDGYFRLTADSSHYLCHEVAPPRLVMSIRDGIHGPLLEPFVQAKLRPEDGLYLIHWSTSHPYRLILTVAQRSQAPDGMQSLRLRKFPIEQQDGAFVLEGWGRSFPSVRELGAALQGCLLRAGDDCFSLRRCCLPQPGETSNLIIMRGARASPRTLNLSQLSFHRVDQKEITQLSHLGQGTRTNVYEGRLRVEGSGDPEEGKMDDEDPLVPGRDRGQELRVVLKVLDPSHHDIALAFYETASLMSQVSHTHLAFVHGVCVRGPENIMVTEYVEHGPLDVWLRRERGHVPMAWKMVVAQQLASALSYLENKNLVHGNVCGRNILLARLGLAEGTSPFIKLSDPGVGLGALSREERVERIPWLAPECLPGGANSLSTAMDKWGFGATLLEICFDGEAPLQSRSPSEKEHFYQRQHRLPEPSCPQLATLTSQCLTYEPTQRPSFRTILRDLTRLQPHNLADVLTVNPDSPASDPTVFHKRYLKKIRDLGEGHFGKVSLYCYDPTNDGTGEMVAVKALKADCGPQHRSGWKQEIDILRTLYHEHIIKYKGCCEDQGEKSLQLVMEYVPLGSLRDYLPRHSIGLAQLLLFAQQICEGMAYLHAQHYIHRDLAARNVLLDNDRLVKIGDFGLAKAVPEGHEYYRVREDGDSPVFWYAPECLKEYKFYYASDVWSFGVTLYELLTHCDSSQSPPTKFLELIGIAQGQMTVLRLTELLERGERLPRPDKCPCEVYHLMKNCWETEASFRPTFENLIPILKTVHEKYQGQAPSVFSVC
UniProt Q6PHR2: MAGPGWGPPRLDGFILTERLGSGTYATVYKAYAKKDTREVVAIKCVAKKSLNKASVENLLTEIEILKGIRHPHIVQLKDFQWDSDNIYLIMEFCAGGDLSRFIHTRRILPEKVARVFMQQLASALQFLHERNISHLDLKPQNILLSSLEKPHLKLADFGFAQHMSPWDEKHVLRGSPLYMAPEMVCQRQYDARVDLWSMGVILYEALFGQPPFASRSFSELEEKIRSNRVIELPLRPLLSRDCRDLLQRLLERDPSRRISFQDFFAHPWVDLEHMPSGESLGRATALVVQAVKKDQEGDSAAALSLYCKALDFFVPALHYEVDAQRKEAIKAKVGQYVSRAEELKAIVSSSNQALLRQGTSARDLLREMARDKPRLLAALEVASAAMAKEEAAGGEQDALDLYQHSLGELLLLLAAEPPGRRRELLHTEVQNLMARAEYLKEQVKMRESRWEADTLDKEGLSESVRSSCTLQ
UniProt P07947, whole entry, looked up: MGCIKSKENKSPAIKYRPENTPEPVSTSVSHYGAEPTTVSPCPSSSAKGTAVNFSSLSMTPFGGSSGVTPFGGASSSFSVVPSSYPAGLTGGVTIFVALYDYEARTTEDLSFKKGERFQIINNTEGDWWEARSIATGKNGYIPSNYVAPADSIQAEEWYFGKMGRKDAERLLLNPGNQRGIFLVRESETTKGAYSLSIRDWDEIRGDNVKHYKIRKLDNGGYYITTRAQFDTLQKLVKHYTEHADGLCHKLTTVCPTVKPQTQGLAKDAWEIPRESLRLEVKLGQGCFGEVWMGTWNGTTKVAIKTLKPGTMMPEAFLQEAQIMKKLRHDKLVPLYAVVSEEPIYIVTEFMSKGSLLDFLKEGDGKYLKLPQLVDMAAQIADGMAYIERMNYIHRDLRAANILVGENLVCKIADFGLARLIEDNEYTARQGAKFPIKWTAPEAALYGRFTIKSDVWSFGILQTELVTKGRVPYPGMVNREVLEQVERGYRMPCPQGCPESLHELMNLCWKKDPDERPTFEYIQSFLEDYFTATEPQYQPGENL
UniProt P43403: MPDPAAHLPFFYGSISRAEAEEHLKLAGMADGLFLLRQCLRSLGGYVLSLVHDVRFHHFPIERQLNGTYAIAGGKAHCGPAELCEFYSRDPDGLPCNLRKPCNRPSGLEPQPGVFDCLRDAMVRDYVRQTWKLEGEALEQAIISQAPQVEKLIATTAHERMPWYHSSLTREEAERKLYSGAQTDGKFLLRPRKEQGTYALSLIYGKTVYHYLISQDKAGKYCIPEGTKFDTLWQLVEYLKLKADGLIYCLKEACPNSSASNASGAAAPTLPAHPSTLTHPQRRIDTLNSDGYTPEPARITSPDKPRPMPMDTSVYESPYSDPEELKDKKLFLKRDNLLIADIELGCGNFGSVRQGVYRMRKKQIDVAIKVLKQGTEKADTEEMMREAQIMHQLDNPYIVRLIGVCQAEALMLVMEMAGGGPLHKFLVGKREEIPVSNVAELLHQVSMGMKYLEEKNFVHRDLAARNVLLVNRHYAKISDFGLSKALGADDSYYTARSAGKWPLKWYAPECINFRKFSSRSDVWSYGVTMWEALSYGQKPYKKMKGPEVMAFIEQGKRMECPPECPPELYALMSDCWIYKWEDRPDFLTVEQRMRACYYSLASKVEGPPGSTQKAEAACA
UniProt P00519, whole entry: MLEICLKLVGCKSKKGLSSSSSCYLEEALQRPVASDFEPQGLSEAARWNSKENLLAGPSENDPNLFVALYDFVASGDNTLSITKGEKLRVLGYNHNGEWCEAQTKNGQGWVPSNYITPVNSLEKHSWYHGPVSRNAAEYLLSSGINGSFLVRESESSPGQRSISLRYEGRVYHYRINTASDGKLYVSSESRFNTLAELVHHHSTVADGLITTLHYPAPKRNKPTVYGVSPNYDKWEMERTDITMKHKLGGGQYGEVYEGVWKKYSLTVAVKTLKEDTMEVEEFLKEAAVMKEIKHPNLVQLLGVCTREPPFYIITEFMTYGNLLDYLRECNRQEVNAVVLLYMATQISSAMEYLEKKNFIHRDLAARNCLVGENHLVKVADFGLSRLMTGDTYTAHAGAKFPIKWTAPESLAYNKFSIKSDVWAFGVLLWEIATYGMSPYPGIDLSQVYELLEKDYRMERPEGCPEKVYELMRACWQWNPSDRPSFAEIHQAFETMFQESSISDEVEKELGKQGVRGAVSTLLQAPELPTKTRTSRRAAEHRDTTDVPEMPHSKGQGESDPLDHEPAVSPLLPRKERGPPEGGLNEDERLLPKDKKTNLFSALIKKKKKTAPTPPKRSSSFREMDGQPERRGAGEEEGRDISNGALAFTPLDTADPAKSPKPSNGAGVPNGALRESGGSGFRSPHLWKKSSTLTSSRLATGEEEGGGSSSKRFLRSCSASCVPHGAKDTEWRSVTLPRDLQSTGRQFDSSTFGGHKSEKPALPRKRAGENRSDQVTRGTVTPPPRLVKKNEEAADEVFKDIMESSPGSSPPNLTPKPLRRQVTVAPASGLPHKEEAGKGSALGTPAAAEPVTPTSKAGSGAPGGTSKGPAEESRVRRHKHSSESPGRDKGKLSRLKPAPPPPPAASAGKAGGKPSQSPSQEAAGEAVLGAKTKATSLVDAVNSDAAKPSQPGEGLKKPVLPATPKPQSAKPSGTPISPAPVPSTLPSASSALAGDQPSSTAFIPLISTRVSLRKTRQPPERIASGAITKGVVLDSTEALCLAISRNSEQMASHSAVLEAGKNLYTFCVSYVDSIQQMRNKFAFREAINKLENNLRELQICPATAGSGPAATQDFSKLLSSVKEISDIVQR
UniProt P31749: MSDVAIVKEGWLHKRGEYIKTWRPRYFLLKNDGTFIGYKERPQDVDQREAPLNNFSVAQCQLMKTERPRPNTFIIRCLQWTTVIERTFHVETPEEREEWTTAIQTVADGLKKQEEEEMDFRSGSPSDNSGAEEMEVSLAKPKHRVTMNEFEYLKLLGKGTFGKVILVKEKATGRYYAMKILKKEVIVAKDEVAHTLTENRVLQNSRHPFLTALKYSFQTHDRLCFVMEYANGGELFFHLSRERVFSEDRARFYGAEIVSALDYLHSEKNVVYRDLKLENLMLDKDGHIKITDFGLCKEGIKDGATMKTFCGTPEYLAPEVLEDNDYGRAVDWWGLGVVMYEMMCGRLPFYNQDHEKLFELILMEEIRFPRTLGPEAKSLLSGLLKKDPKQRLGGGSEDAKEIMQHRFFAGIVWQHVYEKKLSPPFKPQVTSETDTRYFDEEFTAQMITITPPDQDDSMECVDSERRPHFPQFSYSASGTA

Legend:
Settings in all cases: K562; 2-18 h
STK38 = STK38 (UniProt Q15208); test: kinase-Nluc reporter destabilization hit call (1 = scored as downregulated) (binary); higher = compound decreases kinase abundance
SYK = SYK (UniProt P43405); test: as above
TEC = TEC (UniProt P42680); test: as above
TYK2 = TYK2 (UniProt P29597); test: as above
ULK3 = ULK3 (UniProt Q6PHR2); test: as above
YES1 = YES1 (UniProt P07947); test: as above
ZAK = ZAK (UniProt Q9NYL2); test: as above
ZAP70 = ZAP70 (UniProt P43403); test: as above
ABL1 = ABL1 (UniProt P00519); test: number of time points (of 5) at which kinase-Nluc abundance scored as decreased, DMSO-normalised (count); higher = more persistent destabilization
AKT1 = AKT1 (UniProt P31749); test: as above

Cn1cc(C2=C(c3cn(CCCSC(=N)N)c4ccccc34)C(=O)NC2=O)c2ccccc21 [Ro 31-8220 (mesylate)] (2.5 µM)
inactive: kinase-Nluc reporter destabilization hit call (STK38) 0 | kinase-Nluc reporter destabilization hit call (SYK) 0 | kinase-Nluc reporter destabilization hit call (TEC) 0 | kinase-Nluc reporter destabilization hit call (TYK2) 0 | kinase-Nluc reporter destabilization hit call (ULK3) 0 | kinase-Nluc reporter destabilization hit call (YES1) 0 | kinase-Nluc reporter destabilization hit call (ZAK) 0 | kinase-Nluc reporter destabilization hit call (ZAP70) 0
0: number of time points (ABL1) | number of time points (AKT1)

Cc1cc(C)nc(NS(=O)(=O)c2ccc(NC(=S)NC(=O)COc3ccc(Br)cc3Cl)cc2)n1 (2.5 µM)
0: number of time points (ABL1) | number of time points (AKT1)
inactive: kinase-Nluc reporter destabilization hit call (STK38) 0 | kinase-Nluc reporter destabilization hit call (SYK) 0 | kinase-Nluc reporter destabilization hit call (TEC) 0 | kinase-Nluc reporter destabilization hit call (TYK2) 0 | kinase-Nluc reporter destabilization hit call (ULK3) 0 | kinase-Nluc reporter destabilization hit call (YES1) 0 | kinase-Nluc reporter destabilization hit call (ZAK) 0 | kinase-Nluc reporter destabilization hit call (ZAP70) 0

O=C(O)c1cc(=O)c2c(OCC(O)COc3cccc4oc(C(=O)O)cc(=O)c34)cccc2o1 [Cromolyn (sodium)] (10 µM)
0: number of time points (ABL1) | number of time points (AKT1)
inactive: kinase-Nluc reporter destabilization hit call (STK38) 0 | kinase-Nluc reporter destabilization hit call (SYK) 0 | kinase-Nluc reporter destabilization hit call (TEC) 0 | kinase-Nluc reporter destabilization hit call (TYK2) 0 | kinase-Nluc reporter destabilization hit call (ULK3) 0 | kinase-Nluc reporter destabilization hit call (YES1) 0 | kinase-Nluc reporter destabilization hit call (ZAK) 0 | kinase-Nluc reporter destabilization hit call (ZAP70) 0

CNc1cc(Nc2cccn(-c3ccccn3)c2=O)nn2c(C(=O)N[C@@H]3C[C@@H]3F)cnc12 (2.5 µM)
0: number of time points (ABL1) | number of time points (AKT1)
inactive: kinase-Nluc reporter destabilization hit call (STK38) 0 | kinase-Nluc reporter destabilization hit call (SYK) 0 | kinase-Nluc reporter destabilization hit call (TEC) 0 | kinase-Nluc reporter destabilization hit call (TYK2) 0 | kinase-Nluc reporter destabilization hit call (ULK3) 0 | kinase-Nluc reporter destabilization hit call (YES1) 0 | kinase-Nluc reporter destabilization hit call (ZAK) 0 | kinase-Nluc reporter destabilization hit call (ZAP70) 0

O[C@@H]1CO[C@H]2[C@@H]1OC[C@H]2Oc1nc2nc(-c3ccc(-c4ccccc4)cc3)c(Cl)cc2[nH]1 (10 µM)
0: number of time points (ABL1) | number of time points (AKT1)
inactive: kinase-Nluc reporter destabilization hit call (STK38) 0 | kinase-Nluc reporter destabilization hit call (SYK) 0 | kinase-Nluc reporter destabilization hit call (TEC) 0 | kinase-Nluc reporter destabilization hit call (TYK2) 0 | kinase-Nluc reporter destabilization hit call (ULK3) 0 | kinase-Nluc reporter destabilization hit call (YES1) 0 | kinase-Nluc reporter destabilization hit call (ZAK) 0 | kinase-Nluc reporter destabilization hit call (ZAP70) 0

CC(C)=CCc1c(-c2ccc(O)cc2O)oc2c3c(cc(O)c2c1=O)OC(C)(C)C=C3 [Morusin] (2.5 µM)
0: number of time points (ABL1) | number of time points (AKT1)
inactive: kinase-Nluc reporter destabilization hit call (STK38) 0 | kinase-Nluc reporter destabilization hit call (SYK) 0 | kinase-Nluc reporter destabilization hit call (TEC) 0 | kinase-Nluc reporter destabilization hit call (TYK2) 0 | kinase-Nluc reporter destabilization hit call (ULK3) 0 | kinase-Nluc reporter destabilization hit call (YES1) 0 | kinase-Nluc reporter destabilization hit call (ZAK) 0 | kinase-Nluc reporter destabilization hit call (ZAP70) 0

C=CC(=O)Nc1cccc(CNc2nc(Nc3ccc(N4CCN(C)CC4)cc3OC)ncc2Cl)c1 (10 µM)
0: number of time points (ABL1) | number of time points (AKT1)
inactive: kinase-Nluc reporter destabilization hit call (STK38) 0 | kinase-Nluc reporter destabilization hit call (SYK) 0 | kinase-Nluc reporter destabilization hit call (TEC) 0 | kinase-Nluc reporter destabilization hit call (TYK2) 0 | kinase-Nluc reporter destabilization hit call (ULK3) 0 | kinase-Nluc reporter destabilization hit call (YES1) 0 | kinase-Nluc reporter destabilization hit call (ZAK) 0 | kinase-Nluc reporter destabilization hit call (ZAP70) 0

Retrieved by structure from above (two):
CNc1cc(Nc2cccn(-c3ccccn3)c2=O)nn2c(C(=O)N[C@@H]3C[C@@H]3F)cnc12 (2.5 µM)
0: number of time points (ABL1) | number of time points (AKT1)
inactive: kinase-Nluc reporter destabilization hit call (STK38) 0 | kinase-Nluc reporter destabilization hit call (SYK) 0 | kinase-Nluc reporter destabilization hit call (TEC) 0 | kinase-Nluc reporter destabilization hit call (TYK2) 0 | kinase-Nluc reporter destabilization hit call (ULK3) 0 | kinase-Nluc reporter destabilization hit call (YES1) 0 | kinase-Nluc reporter destabilization hit call (ZAK) 0 | kinase-Nluc reporter destabilization hit call (ZAP70) 0

O[C@@H]1CO[C@H]2[C@@H]1OC[C@H]2Oc1nc2nc(-c3ccc(-c4ccccc4)cc3)c(Cl)cc2[nH]1 (10 µM)
0: number of time points (ABL1) | number of time points (AKT1)
inactive: kinase-Nluc reporter destabilization hit call (STK38) 0 | kinase-Nluc reporter destabilization hit call (SYK) 0 | kinase-Nluc reporter destabilization hit call (TEC) 0 | kinase-Nluc reporter destabilization hit call (TYK2) 0 | kinase-Nluc reporter destabilization hit call (ULK3) 0 | kinase-Nluc reporter destabilization hit call (YES1) 0 | kinase-Nluc reporter destabilization hit call (ZAK) 0 | kinase-Nluc reporter destabilization hit call (ZAP70) 0

(more compounds)

CC(C)C[C@@H](C(=O)Nc1ccn(C[C@@H](O)CO)n1)N1CC(Oc2ccccc2Cl)=CC1=O [Dorzagliatin] (10 µM)
0: number of time points (ABL1) | number of time points (AKT1)
inactive: kinase-Nluc reporter destabilization hit call (STK38) 0 | kinase-Nluc reporter destabilization hit call (SYK) 0 | kinase-Nluc reporter destabilization hit call (TEC) 0 | kinase-Nluc reporter destabilization hit call (TYK2) 0 | kinase-Nluc reporter destabilization hit call (ULK3) 0 | kinase-Nluc reporter destabilization hit call (YES1) 0 | kinase-Nluc reporter destabilization hit call (ZAK) 0 | kinase-Nluc reporter destabilization hit call (ZAP70) 0

O=c1[nH]c(C2CCCN2)nc2c1oc1ccc(Cl)cc12 (stereo not given) [XL413 (hydrochloride)] (10 µM)
0: number of time points (ABL1) | number of time points (AKT1)
inactive: kinase-Nluc reporter destabilization hit call (STK38) 0 | kinase-Nluc reporter destabilization hit call (SYK) 0 | kinase-Nluc reporter destabilization hit call (TEC) 0 | kinase-Nluc reporter destabilization hit call (TYK2) 0 | kinase-Nluc reporter destabilization hit call (ULK3) 0 | kinase-Nluc reporter destabilization hit call (YES1) 0 | kinase-Nluc reporter destabilization hit call (ZAK) 0 | kinase-Nluc reporter destabilization hit call (ZAP70) 0

NC(=S)n1[nH]c(-c2ccc([N+](=O)[O-])cc2)c(N=Nc2cccc(Cl)c2)c1=O (2.5 µM)
inactive: kinase-Nluc reporter destabilization hit call (STK38) 0 | kinase-Nluc reporter destabilization hit call (SYK) 0 | kinase-Nluc reporter destabilization hit call (TEC) 0 | kinase-Nluc reporter destabilization hit call (TYK2) 0 | kinase-Nluc reporter destabilization hit call (ULK3) 0 | kinase-Nluc reporter destabilization hit call (YES1) 0 | kinase-Nluc reporter destabilization hit call (ZAK) 0 | kinase-Nluc reporter destabilization hit call (ZAP70) 0
0: number of time points (ABL1) | number of time points (AKT1)

N#Cc1ccnc(Nc2cc(C3CCN(C4COC4)CC3)cc(N3CCC(F)(F)C3)n2)c1 (2.5 µM)
inactive: kinase-Nluc reporter destabilization hit call (STK38) 0 | kinase-Nluc reporter destabilization hit call (SYK) 0 | kinase-Nluc reporter destabilization hit call (TEC) 0 | kinase-Nluc reporter destabilization hit call (TYK2) 0 | kinase-Nluc reporter destabilization hit call (ULK3) 0 | kinase-Nluc reporter destabilization hit call (YES1) 0 | kinase-Nluc reporter destabilization hit call (ZAK) 0 | kinase-Nluc reporter destabilization hit call (ZAP70) 0
0: number of time points (ABL1) | number of time points (AKT1)

N[C@@H](CCC(=O)O)C(=O)N[C@@H](Cc1c[nH]c2ccccc12)C(=O)O [Oglufanide] (10 µM)
0: number of time points (ABL1) | number of time points (AKT1)
inactive: kinase-Nluc reporter destabilization hit call (STK38) 0 | kinase-Nluc reporter destabilization hit call (SYK) 0 | kinase-Nluc reporter destabilization hit call (TEC) 0 | kinase-Nluc reporter destabilization hit call (TYK2) 0 | kinase-Nluc reporter destabilization hit call (ULK3) 0 | kinase-Nluc reporter destabilization hit call (YES1) 0 | kinase-Nluc reporter destabilization hit call (ZAK) 0 | kinase-Nluc reporter destabilization hit call (ZAP70) 0

C=CC(=O)N1C[C@H](COc2nc(Nc3cnn(C)c3)nc3[nH]cc(Cl)c23)[C@@H](OC)C1 (2.5 µM)
0: number of time points (ABL1) | number of time points (AKT1)
inactive: kinase-Nluc reporter destabilization hit call (STK38) 0 | kinase-Nluc reporter destabilization hit call (SYK) 0 | kinase-Nluc reporter destabilization hit call (TEC) 0 | kinase-Nluc reporter destabilization hit call (TYK2) 0 | kinase-Nluc reporter destabilization hit call (ULK3) 0 | kinase-Nluc reporter destabilization hit call (YES1) 0 | kinase-Nluc reporter destabilization hit call (ZAK) 0 | kinase-Nluc reporter destabilization hit call (ZAP70) 0

CC(=O)N1CCC(c2cc(-c3ccc(NC(=O)c4cccn(-c5ccc(F)cc5)c4=O)cc3F)c3c(N)ncnn23)CC1 (0.5 µM)
inactive: kinase-Nluc reporter destabilization hit call (STK38) 0 | kinase-Nluc reporter destabilization hit call (SYK) 0 | kinase-Nluc reporter destabilization hit call (TEC) 0 | kinase-Nluc reporter destabilization hit call (TYK2) 0 | kinase-Nluc reporter destabilization hit call (ULK3) 0 | kinase-Nluc reporter destabilization hit call (YES1) 0 | kinase-Nluc reporter destabilization hit call (ZAK) 0 | kinase-Nluc reporter destabilization hit call (ZAP70) 0
0: number of time points (ABL1) | number of time points (AKT1)

CCc1ccc(OCC(=O)Nc2ccc(F)c([N+](=O)[O-])c2)cc1 (10 µM)
inactive: kinase-Nluc reporter destabilization hit call (STK38) 0 | kinase-Nluc reporter destabilization hit call (SYK) 0 | kinase-Nluc reporter destabilization hit call (TEC) 0 | kinase-Nluc reporter destabilization hit call (TYK2) 0 | kinase-Nluc reporter destabilization hit call (ULK3) 0 | kinase-Nluc reporter destabilization hit call (YES1) 0 | kinase-Nluc reporter destabilization hit call (ZAK) 0 | kinase-Nluc reporter destabilization hit call (ZAP70) 0
0: number of time points (ABL1) | number of time points (AKT1)
